Results on one substance are retold here after article PMC10080908.

The target of the experiment is T1, UBXN7-∆UAS (∆137-260) (human) (UniProt O94888).
T1 sequence: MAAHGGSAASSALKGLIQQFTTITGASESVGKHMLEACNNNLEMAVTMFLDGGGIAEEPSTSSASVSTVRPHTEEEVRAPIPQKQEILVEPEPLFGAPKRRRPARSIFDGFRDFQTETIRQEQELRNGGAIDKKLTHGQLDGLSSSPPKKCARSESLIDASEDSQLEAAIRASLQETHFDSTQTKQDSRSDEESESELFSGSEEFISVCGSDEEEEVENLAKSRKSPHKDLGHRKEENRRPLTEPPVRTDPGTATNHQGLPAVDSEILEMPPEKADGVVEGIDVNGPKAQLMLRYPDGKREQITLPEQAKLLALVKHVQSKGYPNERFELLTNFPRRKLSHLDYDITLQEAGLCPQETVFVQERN
Briefly: condition: 200 µM RNF111 RING domain titrated into 15 µM UBXN7-∆UAS; ITC; VP-ITC; 200 µM RNF111 RING domain injected (20 x 10 µl) into 10 µM UBXN7-WT or UBXN7-UAS, or into 15 µM UBXN7-∆UAS, in the cell; 25 °C; phosphate-buffered saline pH 7.4, 1 mM TCEP; single binding site model; both purified.

Results are given in words; binding and its absence hold for the method and conditions named.

For “RNF111 RING domain (RNF111-RING, aa 895 to Cter) (human) (domain or fragment)”, the binding entry is “no binding”.
